Measured values from the supplement of paper PMC10849652.
The other results are listed elsewhere or left out.

The chains behind the UniProt entries cited, without tags or fusion partners. Where a name states a change or a piece, a line headed by the entry shows the natural chain unless it says otherwise.
UniProt P78363: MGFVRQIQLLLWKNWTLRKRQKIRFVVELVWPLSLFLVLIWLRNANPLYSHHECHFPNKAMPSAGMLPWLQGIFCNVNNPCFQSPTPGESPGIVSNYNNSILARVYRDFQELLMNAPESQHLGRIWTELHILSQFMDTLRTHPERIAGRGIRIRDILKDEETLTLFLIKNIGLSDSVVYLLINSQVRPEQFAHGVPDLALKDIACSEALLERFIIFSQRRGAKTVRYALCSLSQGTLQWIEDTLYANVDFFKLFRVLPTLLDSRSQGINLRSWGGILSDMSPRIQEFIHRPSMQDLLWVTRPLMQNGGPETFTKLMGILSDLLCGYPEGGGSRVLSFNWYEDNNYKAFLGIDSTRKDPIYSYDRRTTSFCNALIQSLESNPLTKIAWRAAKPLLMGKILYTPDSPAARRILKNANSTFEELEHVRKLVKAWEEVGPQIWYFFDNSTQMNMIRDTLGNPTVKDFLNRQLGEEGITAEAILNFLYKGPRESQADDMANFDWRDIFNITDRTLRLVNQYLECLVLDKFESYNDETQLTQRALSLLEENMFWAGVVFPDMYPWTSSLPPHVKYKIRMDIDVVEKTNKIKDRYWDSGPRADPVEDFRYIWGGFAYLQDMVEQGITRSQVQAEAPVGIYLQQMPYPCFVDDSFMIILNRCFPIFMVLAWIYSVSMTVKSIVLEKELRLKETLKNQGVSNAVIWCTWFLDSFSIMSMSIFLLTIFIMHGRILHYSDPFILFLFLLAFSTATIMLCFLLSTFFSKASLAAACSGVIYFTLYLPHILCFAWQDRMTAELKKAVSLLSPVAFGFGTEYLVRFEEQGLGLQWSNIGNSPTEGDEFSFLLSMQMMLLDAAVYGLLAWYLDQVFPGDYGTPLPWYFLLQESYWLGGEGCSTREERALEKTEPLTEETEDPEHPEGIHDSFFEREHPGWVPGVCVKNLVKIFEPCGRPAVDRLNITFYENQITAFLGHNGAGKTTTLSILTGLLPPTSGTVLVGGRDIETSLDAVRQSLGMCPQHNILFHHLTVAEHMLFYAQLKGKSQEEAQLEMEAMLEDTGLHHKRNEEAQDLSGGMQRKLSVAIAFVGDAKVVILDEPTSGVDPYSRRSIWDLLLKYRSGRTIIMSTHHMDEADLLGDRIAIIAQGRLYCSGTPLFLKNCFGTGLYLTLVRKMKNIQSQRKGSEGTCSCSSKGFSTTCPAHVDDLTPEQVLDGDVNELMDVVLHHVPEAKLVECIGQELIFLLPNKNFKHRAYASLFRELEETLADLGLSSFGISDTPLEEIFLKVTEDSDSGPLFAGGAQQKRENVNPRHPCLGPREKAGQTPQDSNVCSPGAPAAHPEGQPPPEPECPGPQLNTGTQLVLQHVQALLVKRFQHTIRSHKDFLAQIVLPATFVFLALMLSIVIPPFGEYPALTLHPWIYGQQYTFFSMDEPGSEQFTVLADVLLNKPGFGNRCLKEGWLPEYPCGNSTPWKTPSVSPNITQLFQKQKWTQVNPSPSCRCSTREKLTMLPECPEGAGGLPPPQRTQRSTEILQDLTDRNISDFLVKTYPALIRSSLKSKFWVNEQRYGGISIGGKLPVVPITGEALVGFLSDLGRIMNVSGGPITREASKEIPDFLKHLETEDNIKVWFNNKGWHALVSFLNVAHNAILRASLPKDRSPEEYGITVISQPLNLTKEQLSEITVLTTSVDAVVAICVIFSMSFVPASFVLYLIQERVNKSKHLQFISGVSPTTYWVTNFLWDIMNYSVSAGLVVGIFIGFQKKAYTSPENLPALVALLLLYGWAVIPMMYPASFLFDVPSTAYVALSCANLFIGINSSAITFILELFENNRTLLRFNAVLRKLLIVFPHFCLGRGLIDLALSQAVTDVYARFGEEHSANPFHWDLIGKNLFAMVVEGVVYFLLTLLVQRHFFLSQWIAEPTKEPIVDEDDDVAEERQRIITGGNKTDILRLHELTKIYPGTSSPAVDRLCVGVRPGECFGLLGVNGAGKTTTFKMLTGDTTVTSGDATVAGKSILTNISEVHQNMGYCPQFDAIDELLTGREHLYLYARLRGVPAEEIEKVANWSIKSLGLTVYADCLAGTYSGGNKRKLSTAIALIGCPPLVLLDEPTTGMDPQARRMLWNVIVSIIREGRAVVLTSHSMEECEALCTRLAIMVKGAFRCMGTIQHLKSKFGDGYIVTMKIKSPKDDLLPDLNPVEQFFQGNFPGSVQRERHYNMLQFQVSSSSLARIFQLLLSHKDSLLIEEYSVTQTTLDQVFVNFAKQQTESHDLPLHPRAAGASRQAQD
UniProt Q9P1F3: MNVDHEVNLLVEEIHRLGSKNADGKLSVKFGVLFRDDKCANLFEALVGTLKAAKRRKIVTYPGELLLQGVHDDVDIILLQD
UniProt Q15027: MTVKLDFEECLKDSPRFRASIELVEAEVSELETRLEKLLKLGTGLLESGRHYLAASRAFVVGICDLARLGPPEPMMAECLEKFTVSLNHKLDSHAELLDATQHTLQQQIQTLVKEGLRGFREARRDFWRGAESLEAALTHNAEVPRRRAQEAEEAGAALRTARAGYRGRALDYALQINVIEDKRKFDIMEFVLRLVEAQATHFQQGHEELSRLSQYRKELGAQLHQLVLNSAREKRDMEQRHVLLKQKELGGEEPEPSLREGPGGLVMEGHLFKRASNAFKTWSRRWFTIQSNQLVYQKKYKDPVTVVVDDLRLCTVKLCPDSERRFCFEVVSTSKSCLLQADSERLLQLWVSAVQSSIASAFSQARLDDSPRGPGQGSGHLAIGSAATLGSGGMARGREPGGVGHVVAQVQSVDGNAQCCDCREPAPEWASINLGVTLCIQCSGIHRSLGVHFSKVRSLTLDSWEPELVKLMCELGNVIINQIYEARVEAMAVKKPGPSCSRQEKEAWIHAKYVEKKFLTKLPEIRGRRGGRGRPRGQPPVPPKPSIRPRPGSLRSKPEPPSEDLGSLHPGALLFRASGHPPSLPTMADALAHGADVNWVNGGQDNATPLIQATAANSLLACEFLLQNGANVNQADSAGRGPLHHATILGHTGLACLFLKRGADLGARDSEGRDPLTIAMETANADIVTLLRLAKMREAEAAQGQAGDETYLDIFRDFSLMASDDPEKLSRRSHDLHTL
UniProt Q8N6N7: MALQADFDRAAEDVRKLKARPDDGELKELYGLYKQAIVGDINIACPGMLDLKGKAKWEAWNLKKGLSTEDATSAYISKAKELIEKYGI
UniProt O94911: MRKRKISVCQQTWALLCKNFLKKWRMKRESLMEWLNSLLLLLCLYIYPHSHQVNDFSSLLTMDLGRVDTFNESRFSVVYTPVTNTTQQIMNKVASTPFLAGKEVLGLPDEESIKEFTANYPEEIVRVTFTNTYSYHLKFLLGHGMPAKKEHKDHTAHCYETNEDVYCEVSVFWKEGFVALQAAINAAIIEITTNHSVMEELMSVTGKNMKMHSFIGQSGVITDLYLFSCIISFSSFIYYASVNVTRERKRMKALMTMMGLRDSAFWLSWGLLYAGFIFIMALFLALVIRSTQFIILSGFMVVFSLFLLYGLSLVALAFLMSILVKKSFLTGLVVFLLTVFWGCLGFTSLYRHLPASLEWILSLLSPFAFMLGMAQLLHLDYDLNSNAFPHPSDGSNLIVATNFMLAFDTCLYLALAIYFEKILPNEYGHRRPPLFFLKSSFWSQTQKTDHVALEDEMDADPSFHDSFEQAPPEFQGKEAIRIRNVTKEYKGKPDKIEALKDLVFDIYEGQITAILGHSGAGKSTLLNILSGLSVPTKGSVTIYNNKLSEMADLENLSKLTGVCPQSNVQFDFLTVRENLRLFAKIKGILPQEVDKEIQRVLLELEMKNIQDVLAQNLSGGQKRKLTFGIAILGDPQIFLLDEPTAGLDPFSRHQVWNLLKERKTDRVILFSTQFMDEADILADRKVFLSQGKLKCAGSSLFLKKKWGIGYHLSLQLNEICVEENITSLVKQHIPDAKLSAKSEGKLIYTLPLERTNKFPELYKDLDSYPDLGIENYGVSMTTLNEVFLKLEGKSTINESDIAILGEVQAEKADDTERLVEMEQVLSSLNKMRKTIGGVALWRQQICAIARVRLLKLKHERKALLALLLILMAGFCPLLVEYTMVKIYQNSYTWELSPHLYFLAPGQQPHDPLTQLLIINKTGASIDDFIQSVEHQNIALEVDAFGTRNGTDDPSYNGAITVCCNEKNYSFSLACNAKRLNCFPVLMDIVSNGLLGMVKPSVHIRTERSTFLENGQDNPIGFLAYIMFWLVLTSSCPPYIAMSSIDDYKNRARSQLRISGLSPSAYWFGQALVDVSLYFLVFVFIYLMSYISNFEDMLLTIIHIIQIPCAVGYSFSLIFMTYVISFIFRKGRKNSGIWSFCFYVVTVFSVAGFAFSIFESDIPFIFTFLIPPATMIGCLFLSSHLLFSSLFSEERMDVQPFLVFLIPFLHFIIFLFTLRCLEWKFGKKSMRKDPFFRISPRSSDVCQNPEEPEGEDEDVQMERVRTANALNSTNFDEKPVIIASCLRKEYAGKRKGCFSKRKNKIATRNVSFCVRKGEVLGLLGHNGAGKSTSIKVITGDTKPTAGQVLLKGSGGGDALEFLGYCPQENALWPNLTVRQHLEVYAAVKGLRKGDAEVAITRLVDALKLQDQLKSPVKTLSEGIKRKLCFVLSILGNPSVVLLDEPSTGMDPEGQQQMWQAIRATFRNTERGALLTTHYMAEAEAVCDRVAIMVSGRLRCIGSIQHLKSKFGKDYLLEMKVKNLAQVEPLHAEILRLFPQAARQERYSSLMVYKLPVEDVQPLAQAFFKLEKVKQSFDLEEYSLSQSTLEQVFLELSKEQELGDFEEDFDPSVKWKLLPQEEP
UniProt Q5T8D3: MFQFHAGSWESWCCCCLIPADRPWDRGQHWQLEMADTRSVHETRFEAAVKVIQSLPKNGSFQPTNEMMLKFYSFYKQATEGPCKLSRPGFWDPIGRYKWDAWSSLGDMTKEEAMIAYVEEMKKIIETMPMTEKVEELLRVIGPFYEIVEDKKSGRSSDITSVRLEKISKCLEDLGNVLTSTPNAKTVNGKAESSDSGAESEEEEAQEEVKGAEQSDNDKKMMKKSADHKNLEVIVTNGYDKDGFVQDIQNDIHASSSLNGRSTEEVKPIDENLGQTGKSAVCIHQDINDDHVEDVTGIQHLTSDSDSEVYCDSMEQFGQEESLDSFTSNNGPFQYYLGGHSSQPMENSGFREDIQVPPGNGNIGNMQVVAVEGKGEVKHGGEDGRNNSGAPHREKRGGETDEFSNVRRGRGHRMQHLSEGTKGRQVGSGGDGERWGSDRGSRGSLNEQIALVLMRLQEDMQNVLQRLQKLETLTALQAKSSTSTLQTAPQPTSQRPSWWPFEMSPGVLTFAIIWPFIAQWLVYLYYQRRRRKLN
UniProt Q6JQN1: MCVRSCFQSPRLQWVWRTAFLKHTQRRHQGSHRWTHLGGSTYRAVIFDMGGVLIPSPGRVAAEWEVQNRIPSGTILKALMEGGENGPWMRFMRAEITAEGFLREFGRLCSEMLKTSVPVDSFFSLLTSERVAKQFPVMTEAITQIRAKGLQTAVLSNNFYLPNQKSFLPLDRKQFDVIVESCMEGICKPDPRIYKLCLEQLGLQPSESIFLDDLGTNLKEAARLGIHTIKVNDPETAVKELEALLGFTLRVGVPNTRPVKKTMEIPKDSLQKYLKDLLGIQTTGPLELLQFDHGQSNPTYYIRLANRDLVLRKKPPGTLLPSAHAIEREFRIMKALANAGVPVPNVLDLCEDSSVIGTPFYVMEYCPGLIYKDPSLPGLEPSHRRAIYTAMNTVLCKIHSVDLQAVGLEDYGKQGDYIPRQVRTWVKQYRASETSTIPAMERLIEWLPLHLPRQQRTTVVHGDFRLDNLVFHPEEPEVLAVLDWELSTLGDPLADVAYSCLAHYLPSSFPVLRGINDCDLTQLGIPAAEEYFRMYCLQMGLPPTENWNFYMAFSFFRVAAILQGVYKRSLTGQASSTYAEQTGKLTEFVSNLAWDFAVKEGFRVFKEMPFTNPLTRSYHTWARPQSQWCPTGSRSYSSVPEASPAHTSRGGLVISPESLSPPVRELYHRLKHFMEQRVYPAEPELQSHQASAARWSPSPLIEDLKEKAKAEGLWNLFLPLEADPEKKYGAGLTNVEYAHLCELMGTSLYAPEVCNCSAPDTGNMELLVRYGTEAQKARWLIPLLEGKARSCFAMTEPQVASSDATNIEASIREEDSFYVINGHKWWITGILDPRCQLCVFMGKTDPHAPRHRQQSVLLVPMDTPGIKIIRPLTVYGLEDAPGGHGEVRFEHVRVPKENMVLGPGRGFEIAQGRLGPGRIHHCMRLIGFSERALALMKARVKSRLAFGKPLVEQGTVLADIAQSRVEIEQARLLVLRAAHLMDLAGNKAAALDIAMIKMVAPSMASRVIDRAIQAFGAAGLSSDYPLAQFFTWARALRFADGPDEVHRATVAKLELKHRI

Tests used:
Experiment in all cases: log2 fold change, soluble protein after heating vs DMSO (PISA); higher = thermal stabilisation; K562 lysate, 10 uM; active = over 0.2 and 3.5 SD of the protein, either way, in both replicates (recomputed)
[1] = compound: C#Cc1cccc(Nc2ncnc3cc(OCCOC)c(OCCOC)cc23)c1 [erlotinib]
How it was run: (§1)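 Log-two fold change in thermal stability relative to solvent controls is reported from duplicates. For each sample, crude K562 extract from dounce-homogenised pellets in PBS pH 7.4 with 1 mM MgCl2, at 1 mg/mL protein, was treated with 10 μM compound for 30 min. Aliquots heated for 3 min across 48°C-58°C were pooled, brought to 0.5% NP-40 at 4°C and cleared at 21,000xg for 90 min. The supernatant was quantified by TMTpro 16plex LC-MS/MS with channel sums equalised.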

[2] = compound: C/C(=N\NC(=O)C1=CC(=CC=C1)S(=O)(=O)N2CCOCC2)/C3=C(C=CC(=C3)Cl)O
How it was run: as §1

[3] = compound: C1=CC(=CC=C1C2=NC3=C(N2)C=C(C=C3)C(=O)N)OC4=CC=C(C=C4)Cl
How it was run: as §1

[4] = compound: C1=CC2=C(C=CC(=C2)/C=C\3/C(=O)NC(=NCC4=CC=CS4)S3)N=C1
How it was run: as §1

[5] = compound: C1=CC2=NC=CN=C2C=C1/C=C/3\C(=O)NC(=O)S3
How it was run: as §1

[6] = compound: C1=CC=C(C=C1)C2=NC(=C(N2)C3=CC=NC=C3)C4=CC(=C(C=C4)Cl)O
How it was run: as §1

[7] = compound: C1=CC=C2C(=C1)C3=NNC4=CC=CC(=C43)C2=O
How it was run: as §1

[8] = compound: C1CCN(C1)C(=O)NC2=CC=CC(=C2)NC3=NC=C(C(=N3)NCCC4=CN=CN4)Br
How it was run: as §1

[9] = compound: C1CN(CCC1(CC2=CC=C(C=C2)Cl)N)C3=NC=NC4=C3C=CN4
How it was run: as §1

[10] = compound: C1COCCN1CCN2C3=CC=CC=C3N=C2NC(=O)C4=CC(=CC=C4)[N+](=O)[O-] [IRAK-1-4 Inhibitor I]
How it was run: as §1

[11] = compound: C=CC(=O)N1CCC[C@@H](n2nc(-c3ccc(Oc4ccccc4)cc3)c3c(N)ncnc32)C1 [ibrutinib]
How it was run: as §1

[12] = compound: CC(=O)c1cnc2ccc(-c3cc(Cl)c(O)c(Cl)c3)nc2c1N[C@H]1CC[C@H](CN(C)C)CC1
How it was run: as §1

[13] = compound: CC(C)(C)Cn1c(N)nc2ccc(-c3[nH]c(C(C)(C)C)nc3-c3ccc(F)cc3)nc21 [ralimetinib]
How it was run: as §1

[14] = compound: CC(C)(O)CC(=O)NCCn1ccc2ncnc(Nc3ccc(Oc4cccc(C(F)(F)F)c4)c(Cl)c3)c21
How it was run: as §1

[15] = compound: CC(C)C1=C2N=C(C=C(N2N=C1)NCC3=CC=CC=C3)NCCCCCCN
How it was run: as §1

[16] = compound: CC1=C(C(CC(=O)N1)C2=CC=C(C=C2)C(F)(F)F)C(=O)NC3=C(C=C4C(=C3)C=NN4)F
How it was run: as §1

[17] = compound: CC1=C(C2=C(C=C1)C(=O)C3=CC=CC=C3N2CCCN)C
How it was run: as §1

[18] = compound: CC1=C(C=C(C=C1)NC(=O)C2=CC(=CC=C2)C(C)(C)C#N)NC3=CC4=C(C=C3)N=CN(C4=O)C
How it was run: as §1

[19] = compound: CC1=C(C=C(C=C1)NC(=O)C2=CC(=CC=C2)N(C)C)NC(=O)C3=CC=C(C=C3)O
How it was run: as §1

[20] = compound: CC1=CC=C(C=C1)SC2=C3C=C(SC3=CN=C2)C(=O)N
How it was run: as §1

Measured: log2 fold change

AARSD1 isoform 3 (UniProt Q9BTE6)
inactive: [1] -0.012 | [2] -0.033 | [3] -0.049 | [4] 0.014 | [5] 0.012 | [6] -0.002 | [7] -0.017 | [8] -0.007 | [9] -0.017 | [10] -0.024 | [11] -0.02 | [12] 0.013 | [13] -0.004 | [14] 0.016 | [15] 0.007 | [16] -0.029 | [17] 0.022 | [18] -0.025 | [19] 0.019 | [20] -0.006

ABHD11 (UniProt Q8NFV4)
inactive: [1] -0.064 | [2] -0.049 | [3] 0.001 | [4] 0.057 | [5] -0.008 | [6] 0.171 | [7] 0.011 | [8] -0.047 | [9] 0.015 | [10] -0.014 | [11] -0.012 | [12] 0.057 | [13] -0.04 | [14] -0.048 | [15] -0.2 | [16] 0.018 | [17] -0.241 | [18] -0.013 | [19] 0 | [20] -0.017

ABCA4 (UniProt P78363)
inactive: [1] 0.065 | [2] -0.014 | [3] 0.143 | [4] -0.038 | [5] -0.042 | [6] -0.015 | [7] -0.016 | [8] 0.032 | [9] 0.065 | [10] 0.059 | [11] 0.028 | [12] 0.067 | [13] -0.008 | [14] -0.072 | [15] -0.055 | [16] -0.054 | [17] -0.109 | [18] 0.119 | [19] 0.01 | [20] -0.033

ABHD13 (UniProt Q7L211)
inactive: [2] 0.015 | [4] 0.021 | [5] 0.011 | [7] -0.071 | [8] 0.176 | [9] 0.04 | [11] 0.041 | [12] -0.017 | [16] -0.028 | [17] 0.196 | [18] 0.03 | [20] 0.003

ABCC3 isoform 4 (UniProt O15438)
inactive: [6] -0.016 | [10] -0.077 | [12] 0.083 | [13] 0.066 | [14] 0.042 | [17] 0.063 | [18] 0.01 | [19] 0.006 | [20] -0.068

ABI1 isoform 6 (UniProt Q8IZP0)
inactive: [8] -0.167 | [9] 0.213 | [12] -0.034 | [20] -0.028

ACLY isoform 2 (UniProt P53396)
inactive: [2] -0.122 | [4] 0.002 | [5] -0.018 | [6] 0.012 | [7] -0.034 | [8] -0.027 | [9] -0.029 | [10] -0.053 | [11] -0.015 | [12] 0.028 | [13] -0.022 | [14] 0.07 | [16] 0.008 | [18] 0.018 | [19] -0.008 | [20] -0.01

ABRACL (UniProt Q9P1F3)
inactive: [1] -0.013 | [3] 0.056 | [5] 0.103 | [11] 0.109 | [12] -0.179 | [15] 0.001 | [16] -0.112 | [17] 0.142 | [18] 0.051 | [20] 0.015

ACAP1 (UniProt Q15027)
inactive: [18] 0.053

ACBD7 (UniProt Q8N6N7)
inactive: [1] -0.006 | [3] -0.049 | [12] 0.041 | [15] 0.016 | [17] -0.058 | [20] -0.076

2 successive records out of the list so far:
ACLY isoform 2 (UniProt P53396)
inactive: [2] -0.122 | [4] 0.002 | [5] -0.018 | [6] 0.012 | [7] -0.034 | [8] -0.027 | [9] -0.029 | [10] -0.053 | [11] -0.015 | [12] 0.028 | [13] -0.022 | [14] 0.07 | [16] 0.008 | [18] 0.018 | [19] -0.008 | [20] -0.01

ABRACL (UniProt Q9P1F3)
inactive: [1] -0.013 | [3] 0.056 | [5] 0.103 | [11] 0.109 | [12] -0.179 | [15] 0.001 | [16] -0.112 | [17] 0.142 | [18] 0.051 | [20] 0.015

Additional records follow.

A0A494C071, A0A494C071
inactive: [5] -0.066 | [11] -0.023 | [17] -0.198

ACAD8 (UniProt Q9UKU7)
inactive: [2] 0.066 | [4] -0.077 | [5] 0.073 | [7] -0.003 | [11] 0.11 | [12] 0.065 | [17] -0.061 | [18] 0.038 | [20] -0.109

AARSD1 (UniProt Q9BTE6)
inactive: [5] 0.037 | [8] -0.16 | [9] 0 | [11] -0.017 | [12] 0.02 | [16] -0.092 | [17] -0.18 | [20] -0.102

ABCE1 (UniProt H0Y990)
inactive: [1] -0.071 | [2] -0.236 | [3] -0.1 | [4] -0.007 | [5] -0.027 | [6] -0.061 | [7] -0.027 | [8] 0.085 | [9] -0.129 | [10] 0.234 | [11] 0.078 | [13] -0.159 | [14] -0.206 | [15] -0.092 | [18] 0.107 | [19] 0.01

ABCA8 isoform 3 (UniProt O94911)
inactive: [1] 0.008 | [3] 0.085 | [12] -0.008 | [15] 0.044 | [18] -0.016 | [20] -0.344

ACBD5 (UniProt Q5T8D3)
inactive: [1] -0.035 | [3] -0.034 | [6] -0.085 | [10] 0.124 | [12] -0.144 | [13] -0.052 | [14] 0.091 | [15] 0.048 | [17] 0.105 | [19] 0.061 | [20] 0.33

ACAD10 isoform 5 (UniProt Q6JQN1)
inactive: [1] 0.089 | [3] -0.032 | [6] 0.067 | [8] -0.048 | [9] 0.032 | [10] -0.018 | [12] -0.117 | [13] -0.026 | [14] 0.013 | [15] -0.038 | [16] 0.496 | [17] -0.033 | [18] 0.094 | [19] 0.025 | [20] -0.181
